Results as given in article PMC7819943, “Rice protein-binding microarrays: a tool to detect cis-acting elements near promoter regions in rice”.
The other results are listed elsewhere or left out.

The chains behind the UniProt entries cited, without tags or fusion partners.
UniProt Q0JBA9, entry or part of it: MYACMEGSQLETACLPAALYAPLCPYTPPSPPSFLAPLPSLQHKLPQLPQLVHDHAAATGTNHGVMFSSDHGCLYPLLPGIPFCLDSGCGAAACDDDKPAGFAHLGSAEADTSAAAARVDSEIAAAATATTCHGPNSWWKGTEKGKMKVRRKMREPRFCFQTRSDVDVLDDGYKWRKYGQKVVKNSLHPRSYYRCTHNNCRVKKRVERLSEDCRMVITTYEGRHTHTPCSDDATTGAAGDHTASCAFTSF

What follows are sequences tested against OsWRKY34 (Oryza sativa, UniProt Q0JBA9 1-250) (assay: protein-binding microarray (RPBM); PBS, 2% BSA, 51.3 ng/ul salmon testes DNA, 50 uM zinc acetate, 200 nM TF, 25 C, 1 h; high values mean tight binding). Conditions: protein: recombinant; tags: N-terminal polyhistidine and DsRed monomer fusion (pET32a); label: CyDye5-dUTP incorporated in the synthesized complementary strand; 3' TTTTT single-stranded linker to array surface; dsDNA, one strand shown.
Outline: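 A custom Agilent array was converted to double-stranded form by primer extension with Cy5-dUTP and blocked with 2% BSA. Protein at 200 nM in PBS with 2% BSA, salmon testes DNA and 50 µM zinc acetate was applied for 1 h at 25 °C, followed by washing. The proteins were polyhistidine–DsRed N-terminal fusions of transcription factors, expressed in E. coli BL21-CodonPlus and Ni–NTA-purified. The binding signal is per-feature fluorescence intensity (arbitrary units) from an Axon 4000B scanner.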

Sequence | binding signal
TATGCATACTTTTTTATCACTGTAGTTACTAGCTAAGATCCGGAGTCACCTAGTGCAG | 9000 fluorescence intensity (a.u.)
ACATATCAAAACTTTTTTACACGTAAACTTTCAACTTTTTCGGAGTCACCTAGTGCAG | 8260 fluorescence intensity (a.u.)
GCTGTTCCTCGCCCACGTCGCGCCCTTCTACCCGGACGACCGGAGTCACCTAGTGCAG | 8130 fluorescence intensity (a.u.)
TCGATCTGTTTCGCTTTGCTTCCGTCAGCCACCGAATTTGCGGAGTCACCTAGTGCAG | 10500 fluorescence intensity (a.u.)
AGTACTCTTCACTGTCTCCATGGAAGTTGTAGGCCTGTTGCGGAGTCACCTAGTGCAG | 8650 fluorescence intensity (a.u.)
GGCCGCACGCCGACCCAGCGCCTTCCGGCCTACGGTCTTCCGGAGTCACCTAGTGCAG | 8240 fluorescence intensity (a.u.)
TCACTTGCCACATTATTTTTCATTTTAGGTTGCAGCTTATCGGAGTCACCTAGTGCAG | 13200 fluorescence intensity (a.u.)
CGTACCTTTGACCCGTGCCCCTAGCTCCGTCCGTTAGCTTCGGAGTCACCTAGTGCAG | 8120 fluorescence intensity (a.u.)
TCTACATAGCGCTGATCGATCAGGTTGATTGCTTTATATTCGGAGTCACCTAGTGCAG | 10400 fluorescence intensity (a.u.)
GGCCGTTTTCTAGCTGTCCTATTCATGGATATGATCAATTCGGAGTCACCTAGTGCAG | 8070 fluorescence intensity (a.u.)
AATTTGTCGTGCTCTCTCCGCTCCCAGCCATTTGTCACCACGGAGTCACCTAGTGCAG | 10100 fluorescence intensity (a.u.)
TACTGACCTGTGGGCATTCGTCACTCGAGCCCACTTAACACGGAGTCACCTAGTGCAG | 8240 fluorescence intensity (a.u.)
AACACACATCCAACTTCCAGTCCCATCGATATATTTTTTTCGGAGTCACCTAGTGCAG | 14700 fluorescence intensity (a.u.)
TGTGAGAAAAAGTCAACGGCGTCATCTATTAAAAAACGGACGGAGTCACCTAGTGCAG | 8450 fluorescence intensity (a.u.)
CGCCGTCGCTCGTCCTGTTGCTTCCGCCGCATCCATCCTGCGGAGTCACCTAGTGCAG | 8680 fluorescence intensity (a.u.)
ACGCAACTTTTCATTTTTTATATTTGCATAATTTTTTTTACGGAGTCACCTAGTGCAG | 12100 fluorescence intensity (a.u.)
CACTCGTGGGGTACGTCACTGCAATACTGCATCCTCCATTCGGAGTCACCTAGTGCAG | 12900 fluorescence intensity (a.u.)
GTGTTCTTTTTTCATTTCTGAAATTTACTTTTTCTAATTTCGGAGTCACCTAGTGCAG | 8830 fluorescence intensity (a.u.)
TTATTTGATGACTCGCTTCTCGTCCCACAGAAAATCTTCTCGGAGTCACCTAGTGCAG | 10200 fluorescence intensity (a.u.)
CTCTTCTATACCCCTAAATTTTGTCTCAAAACTCTATATGCGGAGTCACCTAGTGCAG | 8320 fluorescence intensity (a.u.)
GCTCCGACTCCCTGTTTCCTGGTCCTCTTTTACACCGGCTCGGAGTCACCTAGTGCAG | 15100 fluorescence intensity (a.u.)

Sequence | binding signal
TGACGCCGTTGACTTTTTCTCACATGTTTGACTATTCGTCCGGAGTCACCTAGTGCAG | 49100 fluorescence intensity (a.u.)
TGTACAGCTCACTCATCACTGATCCGTCCCATGTGGTTCACGGAGTCACCTAGTGCAG | 8690 fluorescence intensity (a.u.)
TTTCCCTTTTGAGTTCTTCCGTTTCGACTAGTTTTTCCAACGGAGTCACCTAGTGCAG | 10200 fluorescence intensity (a.u.)
AATGCCGTCCGCCCACGTGGCCAACCCGCGACCACCCGCGCGGAGTCACCTAGTGCAG | 9120 fluorescence intensity (a.u.)
GTCAAACGACTATTCCTGTGTTTTGCATCCATCTGTTTTACGGAGTCACCTAGTGCAG | 9520 fluorescence intensity (a.u.)
CCGCTGCCGCTCTCCATCCCGCCCTCGGTCGCCGACGATCCGGAGTCACCTAGTGCAG | 11600 fluorescence intensity (a.u.)
ACTAACCATGGTGCATTGACTTTTGCTTAATATTATTTCACGGAGTCACCTAGTGCAG | 10200 fluorescence intensity (a.u.)
TATTATAAGTTGTTTTACTTTTTTATTAGTCATTTTTTATCGGAGTCACCTAGTGCAG | 10100 fluorescence intensity (a.u.)
CTGTAGGTACTCGTACTACTCCAATTCTTTCTCTCGCCTACGGAGTCACCTAGTGCAG | 8070 fluorescence intensity (a.u.)
GCAAGTTTTTTGGTCACTCAAGCAACCTTCGCTTGCACTCCGGAGTCACCTAGTGCAG | 8900 fluorescence intensity (a.u.)
GCTTGACACCGATCCATTTGACGAGCTCGCATTTCCTTCACGGAGTCACCTAGTGCAG | 11400 fluorescence intensity (a.u.)
CGGTGTTCTACTGGCGACTGGCCTCCTCGAGTTCTTGATCCGGAGTCACCTAGTGCAG | 10400 fluorescence intensity (a.u.)
CATTCCATCTCTCTCTCTCTCGAATCTTGATCTCTCTCTTCGGAGTCACCTAGTGCAG | 8570 fluorescence intensity (a.u.)
TTCTGAAAAAAAATCGTACTTATGGAAGAGTGCCACAAATCGGAGTCACCTAGTGCAG | 8380 fluorescence intensity (a.u.)
AGTCCATGCACCAAACCCCATCCCAGCCGTCCATCTCCTACGGAGTCACCTAGTGCAG | 8920 fluorescence intensity (a.u.)
GCTCACATTCATATACATGTTAATGAATCTAGACACACATCGGAGTCACCTAGTGCAG | 8520 fluorescence intensity (a.u.)
TACAGGGCAGCAGCCGCGGCCGTTCATCATCGTGTTGACCCGGAGTCACCTAGTGCAG | 10200 fluorescence intensity (a.u.)
AAAGTTGCATCCGACCTATTCATGCCATTTCGTCCCTCCACGGAGTCACCTAGTGCAG | 8230 fluorescence intensity (a.u.)
GTAGCTCTTTTTTTTTGTTTTGGATATACATATTTAGTTACGGAGTCACCTAGTGCAG | 11600 fluorescence intensity (a.u.)
TGACGATGCCTCTGAACTGTGCTGCTCGACTACGTCTTCCCGGAGTCACCTAGTGCAG | 8160 fluorescence intensity (a.u.)
CATCTTTTACAGTTCCATCTCTACTAATCACACCTCATCTCGGAGTCACCTAGTGCAG | 10900 fluorescence intensity (a.u.)

Single entries from the list.
Under binding signal, TTCTGAAAAAAAATCGTACTTATGGAAGAGTGCCACAAATCGGAGTCACCTAGTGCAG shows 8380 fluorescence intensity (a.u.)
Under binding signal, GCTCACATTCATATACATGTTAATGAATCTAGACACACATCGGAGTCACCTAGTGCAG shows 8520 fluorescence intensity (a.u.)
Under binding signal, GCTTGACACCGATCCATTTGACGAGCTCGCATTTCCTTCACGGAGTCACCTAGTGCAG shows 11400 fluorescence intensity (a.u.)
Under binding signal, TGACGCCGTTGACTTTTTCTCACATGTTTGACTATTCGTCCGGAGTCACCTAGTGCAG shows 49100 fluorescence intensity (a.u.)
